Laboratory results from PubChem BioAssay AID901 (National Center for Advancing Translational Sciences (NCATS), 2007).
The list shows a part of the results. These are further read-outs of the screen, such as a control signal, another cell line or another target. No call is given for them. Most of these compounds were active or inconclusive in the main read-out, so they are no random draw. Potencies come from curve fits of mixed quality, noted in brackets.

Assay: qHTS Assay for Identifying the Cell-Membrane Permeable IMPase Inhibitors
Conditions: CHO-M1 cells, IP1 accumulation, HTRF TR-FRET ratio; measured here: donor channel 620 nm AC50

SMILES | AC50
O=C(CCCn1nnc(-c2cccnc2)n1)c1ccc(F)cc1 | 2.51 µM [falling, partial curve, poor fit]
CC(=O)c1ccc(NC(=O)COC(=O)c2ccccc2Sc2ccccc2C#N)cc1 | 0.00447 µM [falling, full curve, poor fit]
O=C(c1cc2ccccc2oc1=O)N(Cc1cccs1)Cc1ccccc1Cl | 5.01 µM [falling, single point]
CC1(C)N=C(c2cccc(F)c2)C(=O)N1 | 0.0158 µM [rising, full curve, poor fit]
O=C(OCn1ncc(Br)c(Br)c1=O)c1ccc(F)cc1 | 31.6 µM [rising, single point]
Cc1ccc(C(=O)Nc2ccc(-c3nc4ccccc4o3)cc2)cc1Cl | 22.4 µM [rising, partial curve]
COc1ccc(C)c2sc(=NC(=O)c3ccccc3)n(C)c12 | 35.5 µM [rising, single point]
CCn1c(CCNC(=O)c2ccc(OC)c(OC)c2)nc2ccccc21 | 0.398 µM [rising, partial curve, poor fit]
Oc1ccc(-c2cn3c(n2)SCC3)cc1O | 12.6 µM [falling, single point]
CCC(c1nnc(SCC(=O)Nc2ccc(C(=O)Nc3ccccc3OC)cc2)o1)N(C)C (centres undefined) | 1.26 µM [falling, single point]
O=C(CSc1ccccn1)N/N=C/C=C/c1ccccc1 | 20 µM [falling, single point]
c1ccc(-n2c(-c3cccs3)nc3nc4ccccc4nc32)cc1 | 5.62 µM [rising, single point]
CCn1nnc(-c2ccccc2NC(=O)C(F)(F)F)n1 | 1.26 µM [falling, full curve]
Cc1ccccc1Nc1c(-c2c[nH]c3ccccc23)nc2cccc(C)n12 | 12.6 µM [rising, partial curve, poor fit]
CC1CCCC(C)N1C(=O)COc1ccc(-c2nnco2)cc1 (centres undefined) | 0.02 µM [rising, partial curve, poor fit]
O=S(=O)(c1ccccc1)N1CCC(N2CCCCCC2)CC1 | 31.6 µM [falling, single point]
O=C(O)C1C2C=CC(C3CC23)C1C(=O)N1CCc2ccccc21 (centres undefined) | 5.01 µM [rising, full curve]
Cc1ccc(C)c(NC(=O)Cn2c(=O)n(CCCS(=O)(=O)C3CCCCC3)c(=O)c3ccccc32)c1 | 0.0891 µM [falling, single point]
C/C(=N\NS(=O)(=O)c1ccc(Cl)c([N+](=O)[O-])c1)c1ccc(C)o1 | 7.94 µM [falling, full curve]

A second format for two compounds above.
SMILES	AC50
CCC(c1nnc(SCC(=O)Nc2ccc(C(=O)Nc3ccccc3OC)cc2)o1)N(C)C (centres undefined)	1.26 µM [falling, single point]
O=C(CSc1ccccn1)N/N=C/C=C/c1ccccc1	20 µM [falling, single point]
